For this test, the target named is T1, His-tagged GMEB1 protein (GMEB1-His) (UniProt Q9Y692).
T1 sequence: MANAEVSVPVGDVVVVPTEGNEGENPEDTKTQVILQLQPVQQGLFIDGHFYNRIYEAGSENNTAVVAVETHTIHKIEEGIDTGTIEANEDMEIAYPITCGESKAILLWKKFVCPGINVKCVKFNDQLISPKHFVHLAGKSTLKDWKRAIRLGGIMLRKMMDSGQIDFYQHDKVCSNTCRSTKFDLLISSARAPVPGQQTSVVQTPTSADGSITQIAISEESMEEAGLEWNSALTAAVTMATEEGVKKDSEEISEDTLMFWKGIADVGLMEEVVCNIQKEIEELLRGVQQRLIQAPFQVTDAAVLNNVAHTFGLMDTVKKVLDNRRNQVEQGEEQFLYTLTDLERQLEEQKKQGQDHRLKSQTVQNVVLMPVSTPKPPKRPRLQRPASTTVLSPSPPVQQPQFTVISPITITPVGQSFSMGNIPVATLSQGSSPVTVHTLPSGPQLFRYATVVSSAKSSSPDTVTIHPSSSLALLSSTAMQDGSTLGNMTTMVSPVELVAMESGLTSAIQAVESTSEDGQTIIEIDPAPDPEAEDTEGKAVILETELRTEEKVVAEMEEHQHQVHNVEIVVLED
Nature of the test: co-IP; HEK293FT cells co-transfected with GMEB1-His and FLAG-tagged TRAF3 forms; lysed in 0.5% NP40 buffer (25 mM Tris-HCl pH 7.4, 150 mM NaCl, 5 mM EDTA); GMEB1-His precipitated with Ni-NTA beads; blot with anti-FLAG and anti-His.

Results are given in words; binding and its absence hold for the method and conditions named. Binding seen in cells or lysates may run through a third protein. Some binding calls cover weakened binding; strength is not graded here. Where a sequence is shown, tags or fusion partners need not be part of it.

B1: FLAG-tagged mutant TRAF3 M7 (TRAF3 M7-flag) (protein, UniProt Q13114 1-568)
chain: MESSKKMDSPGALQTNPPLKLHTDRSAGTPVFVPEQGGYKEKFVKTVEDKYKAEKAHLVLCSPKQTECGHRFCESCMAALLSSSSPKCTACQESIVKDKVFKDNCCKREILALQIYCRNESRGCAEQLMLGHLLVHLKNDCHFEELPCVRPDCKEKVLRKDLRDHVEKACKYREATCSHCKSQVPMIALQKHEDTDCPCVVVSCPHKCSVQTLLRSELSAHLSECVNAPSTCSFKRYGCVFQGTNQQIKAHEASSAVQHVNLLKEWSNSLEKKVSLLQNESVEKNKSIQSLHNQICSFEIEIERQKEMLRNNESKILHLQRVIDSQAEKLKELDKEIRPFRQNWEEADSMKSSVESLQNRVTELESVDKSAGQVARNTGLLESQLSRHDQMLSVHDIRLADMDLRFQVLETASYNGVLIWKIRDYKRRKQEAVMGKTLSLYSQPFYTGYFGYKMCARVYLNGDGMGKGTHLSLFFVIMRGEYDALLPWPFKQKVTLMLMDQGSSRRHLGDAFKPDPNSSSFKKPTGEMNIASGCPVFVAQTVLENGTYIKDDTIFIKVIVDTSDLPDP
In the case of B1, the binding result is on record as “binds”.

For the origin of these results see paper PMC7257233.
